Results deposited as PubChem BioAssay AID743448 (Peter MacCallum Cancer Centre, 2014).

Assay: 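Third-round triage of 106 confirmed candidates in four colon lines under two drugs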 (follow-up of hits)
Cells: four human colon cancer cell lines: HCT116-VR (vorinostat-resistant HCT116 derivative), SW480, SW620 and LIM1215
Knock-down reagent: siRNA pool against human genes, 40 nM siRNA pool
Timing: drug added two days after transfection, read one day later
Challenge: vorinostat 2.5 µM on one half of each plate, etoposide 5 µM on the other half
Detection: 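Caspase 3/7 activity by luminescence and live-cell viability by fluorescence, each given as a ratio to mock-transfected wells and as a robust z-score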
Reading the numbers: caspase ratio to mock: higher = more caspase activity than mock; viability ratio to mock: higher = more live cells than mock; caspase robust z-score: higher = more caspase activity, more apoptosis; viability robust z-score: higher = more live cells
Active means: 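Hit means caspase ratio to mock at least 1.6, or viability ratio to mock at most 0.75; wells with strong death in the absence of drug get no call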
Meaning of the calls: active = caspase or viability hit in this panel; inactive = no change, or unhealthy well
The deposit covers 106 reagents; this is a part drawn at random. 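Calls are per line and drug panel including etoposide, not vorinostat-specific; gene picks needed hits in two or more extra lines with vorinostat versus etoposide.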 Entries without a mark were called inactive. Reagent sequences are not shown.

| Target gene | cell line and drug panel | caspase ratio to mock | viability ratio to mock | caspase robust z-score | viability robust z-score |
| --- | --- | --- | --- | --- | --- |
| SIN3A (SIN3 transcription regulator family member A) | LIM1215 cells with etoposide | 1.67 (active) | 1.12 | -0.48 | 1.28 |
| SIN3A (SIN3 transcription regulator family member A) | LIM1215 cells with vorinostat | 3.85 (active) | 1 | 2.23 | 0.6 |
| SIN3A (SIN3 transcription regulator family member A) | SW480 cells with etoposide | 1.9 (active) | 1.21 | -0.14 | 2.25 |
| SIN3A (SIN3 transcription regulator family member A) | SW480 cells with vorinostat | 1.64 (active) | 1.02 | -0.14 | 0.86 |
| SIN3A (SIN3 transcription regulator family member A) | SW620 cells with etoposide | 1.26 | 1.04 | 0.24 | 1.62 |
| SIN3A (SIN3 transcription regulator family member A) | SW620 cells with vorinostat | 1.36 | 1 | -0.01 | 0.58 |
| SIN3A (SIN3 transcription regulator family member A) | vorinostat-resistant HCT116 cells with etoposide | 1.42 | 1.23 | -0.42 | 1.77 |
| SIN3A (SIN3 transcription regulator family member A) | vorinostat-resistant HCT116 cells with vorinostat | 1.92 (active) | 1.05 | -0.28 | 0.86 |
| AQR (aquarius intron-binding spliceosomal factor) | LIM1215 cells with etoposide | 11.7 | 0.56 | 10.4 | -2.46 |
| AQR (aquarius intron-binding spliceosomal factor) | LIM1215 cells with vorinostat | 6.53 | 0.52 | 5.77 | -2.92 |
| AQR (aquarius intron-binding spliceosomal factor) | SW480 cells with etoposide | 2.97 (active) | 0.56 | 0.73 | -2.08 |
| AQR (aquarius intron-binding spliceosomal factor) | SW480 cells with vorinostat | 1.56 (active) | 0.75 | -0.32 | -0.84 |
| AQR (aquarius intron-binding spliceosomal factor) | SW620 cells with etoposide | 1.75 (active) | 0.54 | 1.36 | -3.57 |
| AQR (aquarius intron-binding spliceosomal factor) | SW620 cells with vorinostat | 1.79 (active) | 0.67 | 1.22 | -1.71 |
| AQR (aquarius intron-binding spliceosomal factor) | vorinostat-resistant HCT116 cells with etoposide | 2.88 (active) | 0.52 | 1.48 | -2.48 |
| AQR (aquarius intron-binding spliceosomal factor) | vorinostat-resistant HCT116 cells with vorinostat | 4.21 (active) | 0.58 | 2.49 | -2.09 |

A few values from the list:
Result of AQR (aquarius intron-binding spliceosomal factor), cell line and drug panel vorinostat-resistant HCT116 cells with vorinostat in “viability robust z-score”: -2.09 (active)
Entry of AQR (aquarius intron-binding spliceosomal factor), cell line and drug panel SW620 cells with vorinostat in “viability ratio to mock”: 0.67 (active)
